Test results from the supplement of paper PMC12067093, “Discovery and optimisation of a covalent ligand for TRIM25 and its application to targeted protein ubiquitination” (Chemical Science, 2025).
The other results are listed elsewhere or left out.

Amino acid sequences for entries named in this document (tags omitted). A change or cut given only in a name is not applied to a line headed by its entry.
UniProt P41218: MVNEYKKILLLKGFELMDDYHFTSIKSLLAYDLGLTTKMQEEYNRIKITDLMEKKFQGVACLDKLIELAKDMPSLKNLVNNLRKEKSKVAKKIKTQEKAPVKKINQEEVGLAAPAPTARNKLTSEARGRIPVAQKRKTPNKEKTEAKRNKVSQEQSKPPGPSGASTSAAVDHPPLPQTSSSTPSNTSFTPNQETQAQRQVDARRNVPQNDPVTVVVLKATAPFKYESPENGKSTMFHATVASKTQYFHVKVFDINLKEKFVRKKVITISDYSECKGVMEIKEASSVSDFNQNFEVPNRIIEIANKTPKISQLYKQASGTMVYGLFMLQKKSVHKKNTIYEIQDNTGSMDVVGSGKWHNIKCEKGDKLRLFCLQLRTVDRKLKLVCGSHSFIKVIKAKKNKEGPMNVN
UniProt Q8NB16: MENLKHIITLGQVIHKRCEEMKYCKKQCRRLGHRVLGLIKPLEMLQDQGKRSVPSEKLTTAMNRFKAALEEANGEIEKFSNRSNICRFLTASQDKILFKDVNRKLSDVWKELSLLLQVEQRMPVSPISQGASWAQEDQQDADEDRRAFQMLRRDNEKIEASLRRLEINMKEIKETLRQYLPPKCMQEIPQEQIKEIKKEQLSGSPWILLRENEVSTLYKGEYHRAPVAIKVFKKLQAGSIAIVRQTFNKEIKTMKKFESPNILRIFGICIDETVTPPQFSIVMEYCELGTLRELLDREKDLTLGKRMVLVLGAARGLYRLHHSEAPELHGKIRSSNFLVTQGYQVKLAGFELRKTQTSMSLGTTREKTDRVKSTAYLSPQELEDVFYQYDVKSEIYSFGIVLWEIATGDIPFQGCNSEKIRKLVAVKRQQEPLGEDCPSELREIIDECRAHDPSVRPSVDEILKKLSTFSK
UniProt P29372, whole entry, looked up: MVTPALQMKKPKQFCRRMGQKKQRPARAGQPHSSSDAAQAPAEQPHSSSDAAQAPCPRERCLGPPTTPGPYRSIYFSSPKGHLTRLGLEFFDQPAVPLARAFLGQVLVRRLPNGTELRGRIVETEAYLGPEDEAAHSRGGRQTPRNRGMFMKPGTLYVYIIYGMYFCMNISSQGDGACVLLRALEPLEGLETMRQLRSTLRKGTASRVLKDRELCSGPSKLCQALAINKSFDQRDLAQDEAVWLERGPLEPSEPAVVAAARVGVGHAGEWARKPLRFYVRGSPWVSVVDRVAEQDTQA
UniProt P46013: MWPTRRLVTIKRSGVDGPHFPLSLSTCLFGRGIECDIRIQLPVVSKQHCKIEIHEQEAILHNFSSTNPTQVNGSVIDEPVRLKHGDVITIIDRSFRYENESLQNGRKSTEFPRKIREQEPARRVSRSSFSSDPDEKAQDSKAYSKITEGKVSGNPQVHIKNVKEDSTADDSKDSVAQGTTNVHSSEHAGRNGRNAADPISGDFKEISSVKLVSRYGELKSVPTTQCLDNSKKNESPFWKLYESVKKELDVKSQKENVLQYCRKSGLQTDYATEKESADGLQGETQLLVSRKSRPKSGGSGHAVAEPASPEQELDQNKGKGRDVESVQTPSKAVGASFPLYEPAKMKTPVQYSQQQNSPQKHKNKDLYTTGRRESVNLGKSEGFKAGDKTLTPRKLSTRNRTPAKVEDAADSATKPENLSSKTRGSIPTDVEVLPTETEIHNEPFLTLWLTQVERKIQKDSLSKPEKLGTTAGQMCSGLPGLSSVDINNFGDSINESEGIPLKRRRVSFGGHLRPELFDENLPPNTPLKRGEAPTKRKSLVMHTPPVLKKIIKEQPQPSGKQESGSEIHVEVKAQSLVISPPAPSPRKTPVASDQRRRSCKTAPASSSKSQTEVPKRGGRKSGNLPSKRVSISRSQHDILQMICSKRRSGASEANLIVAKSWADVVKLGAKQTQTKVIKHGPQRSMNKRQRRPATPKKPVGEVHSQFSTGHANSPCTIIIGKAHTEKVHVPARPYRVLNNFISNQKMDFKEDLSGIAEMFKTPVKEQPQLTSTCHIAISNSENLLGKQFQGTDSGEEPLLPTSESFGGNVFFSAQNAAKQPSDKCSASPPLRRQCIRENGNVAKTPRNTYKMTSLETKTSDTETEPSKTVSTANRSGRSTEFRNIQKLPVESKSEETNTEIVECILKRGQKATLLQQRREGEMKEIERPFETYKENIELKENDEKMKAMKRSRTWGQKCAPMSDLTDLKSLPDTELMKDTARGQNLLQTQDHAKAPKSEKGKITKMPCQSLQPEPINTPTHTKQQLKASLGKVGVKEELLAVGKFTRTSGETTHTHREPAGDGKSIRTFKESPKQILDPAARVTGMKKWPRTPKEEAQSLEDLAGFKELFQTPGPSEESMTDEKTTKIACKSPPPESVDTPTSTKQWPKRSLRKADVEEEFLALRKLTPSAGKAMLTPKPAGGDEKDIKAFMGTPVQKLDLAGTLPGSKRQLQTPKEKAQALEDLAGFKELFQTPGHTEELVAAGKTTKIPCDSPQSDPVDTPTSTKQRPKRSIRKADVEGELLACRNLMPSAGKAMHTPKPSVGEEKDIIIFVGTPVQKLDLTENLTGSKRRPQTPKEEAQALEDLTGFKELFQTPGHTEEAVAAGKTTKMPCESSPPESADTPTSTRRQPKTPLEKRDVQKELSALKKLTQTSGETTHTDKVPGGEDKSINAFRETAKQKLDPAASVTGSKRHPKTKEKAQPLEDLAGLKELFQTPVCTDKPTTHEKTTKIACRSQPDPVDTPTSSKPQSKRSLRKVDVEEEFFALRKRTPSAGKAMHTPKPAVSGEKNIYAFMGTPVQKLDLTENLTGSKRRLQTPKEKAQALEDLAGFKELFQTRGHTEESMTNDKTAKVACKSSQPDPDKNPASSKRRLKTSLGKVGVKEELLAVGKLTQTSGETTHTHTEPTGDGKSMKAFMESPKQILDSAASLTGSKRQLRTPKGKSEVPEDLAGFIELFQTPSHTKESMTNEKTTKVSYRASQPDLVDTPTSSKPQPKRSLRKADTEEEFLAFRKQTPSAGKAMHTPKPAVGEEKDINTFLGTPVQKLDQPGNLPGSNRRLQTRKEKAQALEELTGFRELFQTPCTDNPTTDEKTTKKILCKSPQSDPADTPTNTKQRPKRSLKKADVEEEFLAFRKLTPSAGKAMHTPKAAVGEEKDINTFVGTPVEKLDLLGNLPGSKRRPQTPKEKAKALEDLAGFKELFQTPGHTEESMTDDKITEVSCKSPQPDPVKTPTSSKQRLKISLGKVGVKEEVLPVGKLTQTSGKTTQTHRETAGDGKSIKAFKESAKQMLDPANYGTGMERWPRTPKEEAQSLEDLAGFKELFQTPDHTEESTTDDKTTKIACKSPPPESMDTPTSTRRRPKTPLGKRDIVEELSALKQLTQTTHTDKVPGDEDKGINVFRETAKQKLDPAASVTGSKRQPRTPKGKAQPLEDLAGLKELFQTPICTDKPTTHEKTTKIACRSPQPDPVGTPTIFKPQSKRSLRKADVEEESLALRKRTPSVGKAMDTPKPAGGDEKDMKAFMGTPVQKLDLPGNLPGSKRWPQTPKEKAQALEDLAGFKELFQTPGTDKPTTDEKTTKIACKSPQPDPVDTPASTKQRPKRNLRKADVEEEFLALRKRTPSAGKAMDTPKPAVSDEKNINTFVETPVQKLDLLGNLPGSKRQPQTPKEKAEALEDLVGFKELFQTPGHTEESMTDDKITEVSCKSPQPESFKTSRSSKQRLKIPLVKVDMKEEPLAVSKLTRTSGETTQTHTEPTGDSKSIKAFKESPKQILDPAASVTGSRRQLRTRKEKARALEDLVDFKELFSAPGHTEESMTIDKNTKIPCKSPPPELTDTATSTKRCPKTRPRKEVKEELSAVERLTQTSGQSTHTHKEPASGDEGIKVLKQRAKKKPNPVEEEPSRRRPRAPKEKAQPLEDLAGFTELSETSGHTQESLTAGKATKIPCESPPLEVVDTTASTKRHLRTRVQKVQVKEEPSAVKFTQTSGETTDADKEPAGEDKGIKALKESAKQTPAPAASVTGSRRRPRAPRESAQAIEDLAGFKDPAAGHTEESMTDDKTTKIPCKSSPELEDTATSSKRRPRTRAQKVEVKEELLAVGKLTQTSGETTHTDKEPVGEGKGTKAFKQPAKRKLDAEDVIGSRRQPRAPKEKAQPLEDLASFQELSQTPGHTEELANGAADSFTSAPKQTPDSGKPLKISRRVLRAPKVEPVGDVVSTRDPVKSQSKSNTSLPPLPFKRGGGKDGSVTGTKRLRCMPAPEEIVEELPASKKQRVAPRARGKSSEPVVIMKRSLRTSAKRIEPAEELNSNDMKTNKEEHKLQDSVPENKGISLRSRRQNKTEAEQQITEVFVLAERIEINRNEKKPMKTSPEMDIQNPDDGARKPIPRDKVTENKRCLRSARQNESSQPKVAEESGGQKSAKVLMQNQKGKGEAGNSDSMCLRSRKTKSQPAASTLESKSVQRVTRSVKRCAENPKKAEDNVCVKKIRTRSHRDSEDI
UniProt Q5JRA6: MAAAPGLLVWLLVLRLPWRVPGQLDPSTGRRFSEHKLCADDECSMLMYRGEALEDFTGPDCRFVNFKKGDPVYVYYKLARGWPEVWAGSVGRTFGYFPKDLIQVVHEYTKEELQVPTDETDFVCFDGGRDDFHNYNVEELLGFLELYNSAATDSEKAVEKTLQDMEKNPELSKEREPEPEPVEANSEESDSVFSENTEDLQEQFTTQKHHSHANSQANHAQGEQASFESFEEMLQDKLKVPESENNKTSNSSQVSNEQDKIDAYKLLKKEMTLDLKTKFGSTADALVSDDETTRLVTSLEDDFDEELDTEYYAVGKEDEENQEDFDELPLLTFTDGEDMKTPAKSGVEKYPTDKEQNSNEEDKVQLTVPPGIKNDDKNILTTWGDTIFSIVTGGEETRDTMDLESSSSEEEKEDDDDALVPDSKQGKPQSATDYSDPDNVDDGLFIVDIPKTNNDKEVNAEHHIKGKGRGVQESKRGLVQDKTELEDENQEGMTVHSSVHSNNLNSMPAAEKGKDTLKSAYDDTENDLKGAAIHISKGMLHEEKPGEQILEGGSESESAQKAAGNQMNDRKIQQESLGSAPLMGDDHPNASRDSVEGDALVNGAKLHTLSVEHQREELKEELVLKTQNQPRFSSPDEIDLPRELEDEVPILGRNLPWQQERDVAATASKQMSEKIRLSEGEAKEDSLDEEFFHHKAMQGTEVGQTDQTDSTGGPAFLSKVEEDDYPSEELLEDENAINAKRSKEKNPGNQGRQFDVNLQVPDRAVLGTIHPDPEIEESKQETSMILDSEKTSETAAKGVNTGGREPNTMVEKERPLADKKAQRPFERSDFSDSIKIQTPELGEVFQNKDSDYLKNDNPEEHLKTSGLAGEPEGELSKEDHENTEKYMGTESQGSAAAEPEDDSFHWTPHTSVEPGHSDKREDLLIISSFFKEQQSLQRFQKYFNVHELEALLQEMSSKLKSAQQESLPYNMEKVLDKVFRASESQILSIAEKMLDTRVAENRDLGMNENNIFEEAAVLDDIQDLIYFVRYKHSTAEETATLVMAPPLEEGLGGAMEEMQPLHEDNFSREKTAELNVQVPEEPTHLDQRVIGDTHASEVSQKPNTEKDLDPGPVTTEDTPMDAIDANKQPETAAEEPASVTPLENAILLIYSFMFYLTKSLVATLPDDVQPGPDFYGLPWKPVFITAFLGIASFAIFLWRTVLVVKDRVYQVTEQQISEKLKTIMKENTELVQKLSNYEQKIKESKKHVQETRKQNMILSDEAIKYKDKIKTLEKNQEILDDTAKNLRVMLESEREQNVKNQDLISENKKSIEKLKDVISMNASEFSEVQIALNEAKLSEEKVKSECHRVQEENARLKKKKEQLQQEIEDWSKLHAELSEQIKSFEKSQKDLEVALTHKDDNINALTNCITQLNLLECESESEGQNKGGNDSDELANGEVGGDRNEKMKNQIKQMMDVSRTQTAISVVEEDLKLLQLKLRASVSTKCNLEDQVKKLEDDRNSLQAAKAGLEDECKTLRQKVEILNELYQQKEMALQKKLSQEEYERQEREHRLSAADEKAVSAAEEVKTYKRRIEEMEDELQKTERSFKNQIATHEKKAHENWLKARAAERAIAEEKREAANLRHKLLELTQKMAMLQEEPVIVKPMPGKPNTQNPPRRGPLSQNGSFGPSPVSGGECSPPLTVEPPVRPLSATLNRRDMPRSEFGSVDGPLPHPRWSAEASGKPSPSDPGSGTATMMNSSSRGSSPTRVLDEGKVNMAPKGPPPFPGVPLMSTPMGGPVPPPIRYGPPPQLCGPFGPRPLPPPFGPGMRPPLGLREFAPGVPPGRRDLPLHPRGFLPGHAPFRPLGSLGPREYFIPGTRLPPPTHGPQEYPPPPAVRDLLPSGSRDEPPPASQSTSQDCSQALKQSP

Compound: Cc1cc(ccc1-c1ccccc1)C(=O)N1CCCN(CC1)C(=O)CCl [compound 10]
Experiment: probe-labelled cysteine peptide fold change vs DMSO (competition) (log2 fold change); higher = less target engagement (more negative = stronger competition)
Conditions: THP-1, incubation time: 4 h
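Further: competitive profiling in live THP-1 cells: cysteine peptides tagged with an iodoacetamide desthiobiotin (IA-DTB) probe, intensity after compound treatment relative to DMSO-treated cells.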

| Target | probe-labelled cysteine peptide fold change (10 µM) | probe-labelled cysteine peptide fold change (50 µM) |
| --- | --- | --- |
| MNDA_P41218_274_VITISDYSECK (UniProt P41218) | -0.0501 | 0.0321 |
| MORC2_Q9Y6X9_499+502_AMEIPTTIQCDLCLK (UniProt Q9Y6X9) | -0.05 | -0.256 |
| MLKL_Q8NB16_184_CMQEIPQEQIK (UniProt Q8NB16) | -0.232 | -1.04 |
| MPP6_Q9NZW5_103_CYDSPPSSPEMNNSSINNQLLPVDAIR (UniProt Q9NZW5) | -0.25 | -0.333 |
| MRC2_Q9UBG0_1107_SCTEETHGFICQK (UniProt Q9UBG0) | -0.229 | -0.343 |
| MPG_P29372_215_DRELCSGPSK (UniProt P29372) | -0.0933 | -0.129 |
| MKI67_P46013_1981_ITEVSCK (UniProt P46013) | -0.217 | -0.252 |
| MMS19_Q96T76_502_EDSQSCR (UniProt Q96T76) | -0.00531 | -0.404 |
| MRPL16_Q9NX20_167_CEFEEVQGFLDQVAHK (UniProt Q9NX20) | -0.11 | 0.058 |
| MPST_P25325_7_ASPQLCR (UniProt P25325) | -0.141 | -0.0522 |
| MIA3_Q5JRA6_1513_AGLEDECK (UniProt Q5JRA6) | 0.397 | 0.352 |
| MORF4L2_Q15014_165_NVDAILEEYANCKK (UniProt Q15014) | -0.218 | 0.0129 |
| MKI67_P46013_2206_ELFQTPICTDKPTTHEK (UniProt P46013) | -0.207 | -0.217 |
| MKNK1_Q9BUB5_231_ICDFDLGSGMK (UniProt Q9BUB5) | -0.302 | 0.127 |
| MPG_P29372_222_LCQALAINK (UniProt P29372) | -0.0478 | -0.42 |

Single records, as listed above:
MPG_P29372_222_LCQALAINK (UniProt P29372) in the list: probe-labelled cysteine peptide fold change (10 µM) = -0.0478; probe-labelled cysteine peptide fold change (50 µM) = -0.42
MRPL16_Q9NX20_167_CEFEEVQGFLDQVAHK (UniProt Q9NX20) in the list: probe-labelled cysteine peptide fold change (10 µM) = -0.11; probe-labelled cysteine peptide fold change (50 µM) = 0.058
